Test results taken from PubChem BioAssay AID624297 (National Center for Advancing Translational Sciences (NCATS), 2012).
About 6,200 (1.8%) of roughly 340,000 compounds were called active. The inconclusive results got no clear call from the source; some entries with a clear call stand among them for comparison. The call rests on the fitted dose curve; in most records, active means well fitted activation curve with a large enough effect; inconclusive means small, poorly fitted or top-dose-only effect; inactive means no such curve, though single readings can be large or run the other way. Potencies beside an inconclusive call are fits to weak or partial responses and may not hold up.

Experiment: A quantitative high throughput screen for small molecules that induce DNA re-replication in SW480 colon adenocarcinoma cells. Further: nearly all actives have a fitted effect of over 55% in size. On re-replication activation: % of control where 0% means no effect.
Conditions: Hoechst DNA content imaging, 48 h; re-replication activation: at 46.1 µM (top of the series) unless noted
Method in brief: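 Image-based DNA-content assay: after two days of treatment, nuclei were labelled with the DNA dye Hoechst and imaged, and hits were compounds raising the count of nuclei showing high fluorescence intensity.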
Potency means the concentration at half of the fitted maximal effect.

Row | SMILES | re-replication activation | Potency
1 | CCC(CC)COC(=O)C1=C(C)NC(=O)NC1c1ccc2c(c1)OCO2 (configuration not stated) | inactive: -1.72% | 
2 | COc1ccc(N2CCN(C(=O)c3ccc(NS(=O)(=O)c4cccc(F)c4)cc3)CC2)cc1 | inactive: -5.11% | 
3 | Cc1ccc(S(=O)(=O)N2[C@@H](c3ccc(Cl)cc3)C(C(=O)O)=C[C@H]2C(C)(C)C)cc1 | inactive: -6.3% | 
4 | O=C(Cn1c(-c2ccccn2)nc2ccccc21)N/N=C/c1cccnc1 | inactive: -11.8% | 
5 | O=C(NC(=S)NCc1ccc(F)cc1)c1ccccc1 |  | inconclusive: 29.1 µM [activator, single point]
6 | O=C(CCS(=O)(=O)Cc1ccccc1)N1CCc2ccccc2C1 | inactive: -8.79% | 
7 | COc1ccc2c(CC(=O)OCC(=O)N3CCc4ccccc43)coc2c1 |  | inconclusive: 29.1 µM [activator, partial curve, poor fit]
8 | CCOc1ccc(-n2c(SCC(=O)Nc3ccc(OC)cc3)nc3sc4c(c3c2=O)CCN(C)C4)cc1 |  | inconclusive: 29.1 µM [activator, single point]
9 | O=S(=O)(c1cccc(Cl)c1)N1CN(CC2CCCO2)c2nc3ccccc3nc21 (configuration not stated) |  | inconclusive: 20.6 µM [activator, single point]
10 | Cc1ccc(Sc2ccc(NC(=O)CCl)cc2)cc1C |  | inconclusive: 18.4 µM [activator, single point]
11 | Cc1c(C#N)c(NC(=O)CCl)n(Cc2ccccc2)c1C |  | inconclusive: 6.51 µM [activator, partial curve, poor fit]
12 | C/C(=N\NC(=O)c1nnn(-c2nonc2N)c1C(C)C)c1ccc2ccccc2c1 |  | inconclusive: 0.562 µM [activator, full curve, poor fit]
13 | Cn1c(SCC(=O)Nc2cc(Cl)cc(Cl)c2)nnc1-c1ccc2nonc2c1 |  | active: 18.4 µM
14 | Cc1nc2ccccc2c2c(N)c3ccccc3n12 |  | inconclusive: 16.4 µM [activator, partial curve, poor fit]
15 | COc1ccc(C(=O)NCC(=O)N/N=C/c2ccc([N+](=O)[O-])o2)cc1OC |  | active: 11.6 µM
16 | CC(C)OC(=O)c1nnn(-c2nonc2N)c1CN1CCc2ccccc2C1 | inactive: 5.42% | 
17 | CCN(CC)CCCNC(=O)C1CCN(c2ncnc3c2sc2cccc(F)c23)CC1 |  | inconclusive: 6.51 µM [activator, partial curve, poor fit]
18 | Cc1c(NC(=O)c2ccc(Cl)nc2)cccc1-c1nc2cccnc2s1 |  | inconclusive: 4.11 µM [activator, full curve, poor fit]
19 | NNc1nc(-c2ccccc2)cc(-c2ccc(Br)cc2)n1 |  | inconclusive: 29.1 µM [activator, single point]
20 | CCCCc1ccc(Nc2ncnc3nc[nH]c23)cc1 | inactive: -8.64% | 
21 | O=C1C(NS(=O)(=O)c2ccccc2)=C(N2CCN(c3ccc(F)cc3)CC2)C(=O)c2ccccc21 | inactive: -1.2% | 
22 | Cc1nn(-c2ccc(Cl)cn2)c2c1C(=O)CC(C)(C)C2Br (configuration not stated) |  | inconclusive: 32.6 µM [activator, partial curve, poor fit]
23 | CN(C)/C=C1\C(=O)N(c2ccc([N+](=O)[O-])cc2)N=C1c1ccccc1 | inactive: -2.96% | 

Row | SMILES | re-replication activation | Potency
24 | CCc1ccccc1OC[C@@H](O)CN[C@H]1CCCc2ccccc21 |  | inconclusive: 32.6 µM [activator, partial curve, poor fit]
25 | CC1CCCCN1C(=O)CCn1c(=S)oc2ccccc21 (configuration not stated) |  | inconclusive: 7.31 µM [activator, partial curve, poor fit]
26 | S=C1Cc2ccccc2C(c2ccc(Cl)cc2)N1 (configuration not stated) |  | inconclusive: 29.1 µM [activator, single point]
27 | N#CC(=C(O)COC(=O)c1ccc2c(c1)OCCO2)c1nc2ccccc2[nH]1 |  | inconclusive: 0.82 µM [activator, full curve, poor fit]
28 | CCOC(=O)[C@@H]1[C@H]2COc3ccc(Br)cc3[C@H]2N2C(=O)N(c3ccc(F)cc3)C(=O)[C@]12C |  | inconclusive: 6.51 µM [activator, partial curve, poor fit]
29 | COC(=O)C(NS(=O)(=O)c1ccc(NC(C)=O)cc1)C(C)C (configuration not stated) |  | inconclusive: 29.1 µM [activator, single point]
30 | Cc1ccc(S(=O)(=O)N2CCCOC2CNC(=O)C(=O)NCc2ccc3c(c2)OCO3)cc1 (configuration not stated) |  | inconclusive: 14.6 µM [activator, single point]
31 | Cc1cc(-c2ccccc2C(=O)Nc2ccccc2O)on1 |  | inconclusive: 0.13 µM [activator, full curve, poor fit]
32 | CCOc1ccc(N/C=C/C(=O)c2cc(OC)c(OC)c(OC)c2)cc1 |  | active: 0.58 µM
33 | CCCCNC(=S)N(Cc1ccco1)Cc1cc2cc3c(cc2[nH]c1=O)OCCO3 | inactive: 8.46% | 
34 | O=C(CNS(=O)(=O)c1ccccc1)OCC(=O)c1cccc([N+](=O)[O-])c1 | inactive: -4.52% | 
35 | CCc1ccc(/C=C2\SC(=S)N(CCCC(=O)Nc3nccs3)C2=O)cc1 |  | inconclusive: 32.6 µM [activator, single point]
36 | CCNC(=O)c1cc2c(=O)n3cccc(C)c3nc2n(CCc2ccccc2)c1=N |  | inconclusive: 3.16 µM [activator, single point]
37 | O=C(O)C[C@H]1c2cc(C(F)(F)F)ccc2S(=O)(=O)N1C1CCCC1 | inactive: -3.59% [at 9.22 µM] | 
38 | N/C(=N\OC(=O)CCC1CCCC1)c1ccncc1 |  | inconclusive: 23.1 µM [activator, single point]
39 | CCN(CC)C(=O)c1ccc(Cn2cc([N+](=O)[O-])cn2)o1 |  | inconclusive: 14.6 µM [activator, partial curve, poor fit]
40 | O=S(=O)(c1ccccc1)N1CCN(Cc2ccccc2)c2ccccc21 | inactive: 0.91% | 
41 | Cc1cc(C)c2cc(C(O)c3nnnn3Cc3ccccc3)c(=O)[nH]c2c1 (configuration not stated) |  | active: 4.61 µM
42 | Cc1[nH]n(-c2ccccc2)c(=O)c1/C=N/N(c1ccccc1)c1ccccc1 |  | inconclusive: 13 µM [activator, single point]
43 | COc1ccc(-c2csc(Nc3ccc(S(N)(=O)=O)cc3)n2)cc1OC |  | inconclusive: 32.6 µM [activator, partial curve, poor fit]
44 | Cc1cccc(C(=O)N[C@H](C(=O)Nc2ncc(C)s2)C(C)C)c1 |  | inconclusive: 29.1 µM [activator, single point]
45 | Nc1c(C(=O)OCC2CCCO2)c2nc3ccccc3nc2n1-c1ccc2c(c1)OCCO2 (configuration not stated) | inactive: 2.48% | 
46 | CC(C)c1ccc(N2C(=O)CC(Sc3nc4ccccc4o3)C2=O)cc1 (configuration not stated) |  | inconclusive: 29.1 µM [activator, single point]

Shown field by field: 4 of the compounds above.
COc1ccc(N2CCN(C(=O)c3ccc(NS(=O)(=O)c4cccc(F)c4)cc3)CC2)cc1
  re-replication activation: inactive: -5.11%
Cc1ccc(S(=O)(=O)N2[C@@H](c3ccc(Cl)cc3)C(C(=O)O)=C[C@H]2C(C)(C)C)cc1
  re-replication activation: inactive: -6.3%
O=C(Cn1c(-c2ccccn2)nc2ccccc21)N/N=C/c1cccnc1
  re-replication activation: inactive: -11.8%
O=C(NC(=S)NCc1ccc(F)cc1)c1ccccc1
  Potency: inconclusive: 29.1 µM [activator, single point]

Remaining list, next part:

Row | SMILES | re-replication activation | Potency
47 | COc1ccc(CCNC(=O)c2cc3c(=O)n4ccccc4nc3n(CCCN3CCOCC3)c2=N)cc1OC |  | inconclusive: 13 µM [activator, partial curve, poor fit]
48 | COc1ccccc1N1CCN(C(=O)c2ccc3c(Cl)c4c(nc3c2)CCCC4)CC1 |  | inconclusive: 23.1 µM [activator, single point]
49 | COc1ccc(CC2C(=O)NC(C)C(=O)N(C)C3Cc4ccc(cc4)Oc4cc(ccc4O)CC(C(=O)NC(C)C(=O)NC(C)C(=O)N2C)N(C)C3=O)cc1 (configuration not stated) |  | active: 4.61 µM
50 | C[C@H](NC(=O)C(c1ccccc1)c1ccccc1)c1ccccc1 |  | inconclusive: 29.1 µM [activator, single point]
51 | O=C1c2ccccc2C(=O)c2c1cccc2N1CCCC1 | inactive: -19.5% | 
52 | Cc1cc(C)n(-c2ccc(C(=O)Nc3cccnc3Cl)cc2)n1 | inactive: 21.4% | 
53 | Cc1cc(C)c(S(=O)(=O)N2CCC(C(=O)NCc3ccc(Cl)cc3Cl)CC2)c(C)c1 |  | inconclusive: 23.1 µM [activator, partial curve, poor fit]
54 | CCOc1cc(C(C(=O)NCC2CCCO2)N(C(=O)Cn2nnc3ccccc32)c2ccc(OC)c(OC)c2)ccc1O (configuration not stated) | inactive: -1.95% | 
55 | COc1ccc(/C=C/C(=O)c2cc(F)ccc2OC(=O)c2ccccc2OC)cc1OC |  | inconclusive: 1.46 µM [activator, partial curve]
56 | Cc1ccc2c(CN(C)Cc3cccc(F)c3)cc(=O)oc2c1 |  | inconclusive: 0.58 µM [activator, partial curve, poor fit]
57 | Cc1ccc(C(=O)Nc2cccc(C(=O)N/N=C/c3ccccc3F)c2)cc1 |  | inconclusive: 0.0517 µM [activator, full curve, poor fit]
58 | CCCCc1cc(=O)oc2cc(C)c(CN3CCCC3)c(O)c12 | inactive: 5.27% | 
59 | O=C(O)c1ccc(C2NCC(c3ccccc3Cl)c3c2[nH]c2ccccc32)cc1 (configuration not stated) | inactive: 1.24% | 
60 | CC(=O)Nc1ccc(OCCOc2ccc(/C=C3\C(=N)N4N=C(C(C)C)SC4=NC3=O)cc2)cc1 |  | inconclusive: 14.6 µM [activator, partial curve, poor fit]
61 | Cc1ccc(S(=O)(=O)N2CCCCC2)cc1NC(=O)c1cc(F)c(F)c(F)c1F |  | inconclusive: 29.1 µM [activator, single point]
62 | CC(C)NC(=O)c1ccc(-c2cccc(C(F)(F)F)c2)o1 | inactive: -8.56% | 
63 | CC(C)(C)[C@H]1COC(=O)CCCC/C=C\C[C@H](CC(=O)N(CCO)Cc2ccccc2)C(=O)N1 | inactive: -0.015% | 
64 | COCCn1cnc2cc(C)c(C)cc21 | inactive: -7.27% | 
65 | COc1cc(OC)cc(C(=O)N[C@H](C(=O)Nc2cccc(S(=O)(=O)N3CCCC3)c2)C(C)C)c1 |  | inconclusive: 23.1 µM [activator, single point]
66 | N#C/C(=C\c1ccncc1)c1ccc(NC(N)=O)cc1 |  | inconclusive: 29.1 µM [activator, single point]
67 | Fc1ccc(-n2cc(-c3ccccc3)[n+]3c2SCC3)cc1 |  | inconclusive: 29.1 µM [activator, single point]
